Measurements as given in doi:10.1101/2023.05.24.542135.
Results are given in words; binding and its absence hold for the method and conditions named. In cells and extracts the contact can be indirect. Some entries that bind do so weakly or less than the wild type.

Sequences of proteins named here, by UniProt entry; tags and fusion partners are left off. Residues count along the entry.
UniProt Q80TG9, residues 21-788: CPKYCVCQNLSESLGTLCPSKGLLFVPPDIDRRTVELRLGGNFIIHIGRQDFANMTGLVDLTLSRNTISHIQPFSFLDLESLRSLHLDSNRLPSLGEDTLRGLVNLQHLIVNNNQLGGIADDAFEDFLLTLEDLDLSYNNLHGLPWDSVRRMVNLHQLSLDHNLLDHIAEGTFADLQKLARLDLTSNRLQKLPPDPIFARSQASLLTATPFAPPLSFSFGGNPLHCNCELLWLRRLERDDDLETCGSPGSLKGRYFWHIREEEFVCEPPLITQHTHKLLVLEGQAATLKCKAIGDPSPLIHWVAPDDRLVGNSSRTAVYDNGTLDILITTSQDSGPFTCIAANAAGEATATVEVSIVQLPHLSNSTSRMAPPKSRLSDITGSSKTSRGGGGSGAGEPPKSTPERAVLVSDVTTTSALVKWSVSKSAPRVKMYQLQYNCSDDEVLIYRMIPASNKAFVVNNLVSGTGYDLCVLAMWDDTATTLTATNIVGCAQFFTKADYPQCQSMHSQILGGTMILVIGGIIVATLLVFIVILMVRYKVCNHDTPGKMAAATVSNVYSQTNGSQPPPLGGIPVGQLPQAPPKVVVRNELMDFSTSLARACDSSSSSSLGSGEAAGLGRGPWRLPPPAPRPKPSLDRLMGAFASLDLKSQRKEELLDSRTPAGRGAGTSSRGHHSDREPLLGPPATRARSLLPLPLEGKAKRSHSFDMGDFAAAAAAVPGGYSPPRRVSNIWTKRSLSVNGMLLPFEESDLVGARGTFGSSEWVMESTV
UniProt Q2TV84: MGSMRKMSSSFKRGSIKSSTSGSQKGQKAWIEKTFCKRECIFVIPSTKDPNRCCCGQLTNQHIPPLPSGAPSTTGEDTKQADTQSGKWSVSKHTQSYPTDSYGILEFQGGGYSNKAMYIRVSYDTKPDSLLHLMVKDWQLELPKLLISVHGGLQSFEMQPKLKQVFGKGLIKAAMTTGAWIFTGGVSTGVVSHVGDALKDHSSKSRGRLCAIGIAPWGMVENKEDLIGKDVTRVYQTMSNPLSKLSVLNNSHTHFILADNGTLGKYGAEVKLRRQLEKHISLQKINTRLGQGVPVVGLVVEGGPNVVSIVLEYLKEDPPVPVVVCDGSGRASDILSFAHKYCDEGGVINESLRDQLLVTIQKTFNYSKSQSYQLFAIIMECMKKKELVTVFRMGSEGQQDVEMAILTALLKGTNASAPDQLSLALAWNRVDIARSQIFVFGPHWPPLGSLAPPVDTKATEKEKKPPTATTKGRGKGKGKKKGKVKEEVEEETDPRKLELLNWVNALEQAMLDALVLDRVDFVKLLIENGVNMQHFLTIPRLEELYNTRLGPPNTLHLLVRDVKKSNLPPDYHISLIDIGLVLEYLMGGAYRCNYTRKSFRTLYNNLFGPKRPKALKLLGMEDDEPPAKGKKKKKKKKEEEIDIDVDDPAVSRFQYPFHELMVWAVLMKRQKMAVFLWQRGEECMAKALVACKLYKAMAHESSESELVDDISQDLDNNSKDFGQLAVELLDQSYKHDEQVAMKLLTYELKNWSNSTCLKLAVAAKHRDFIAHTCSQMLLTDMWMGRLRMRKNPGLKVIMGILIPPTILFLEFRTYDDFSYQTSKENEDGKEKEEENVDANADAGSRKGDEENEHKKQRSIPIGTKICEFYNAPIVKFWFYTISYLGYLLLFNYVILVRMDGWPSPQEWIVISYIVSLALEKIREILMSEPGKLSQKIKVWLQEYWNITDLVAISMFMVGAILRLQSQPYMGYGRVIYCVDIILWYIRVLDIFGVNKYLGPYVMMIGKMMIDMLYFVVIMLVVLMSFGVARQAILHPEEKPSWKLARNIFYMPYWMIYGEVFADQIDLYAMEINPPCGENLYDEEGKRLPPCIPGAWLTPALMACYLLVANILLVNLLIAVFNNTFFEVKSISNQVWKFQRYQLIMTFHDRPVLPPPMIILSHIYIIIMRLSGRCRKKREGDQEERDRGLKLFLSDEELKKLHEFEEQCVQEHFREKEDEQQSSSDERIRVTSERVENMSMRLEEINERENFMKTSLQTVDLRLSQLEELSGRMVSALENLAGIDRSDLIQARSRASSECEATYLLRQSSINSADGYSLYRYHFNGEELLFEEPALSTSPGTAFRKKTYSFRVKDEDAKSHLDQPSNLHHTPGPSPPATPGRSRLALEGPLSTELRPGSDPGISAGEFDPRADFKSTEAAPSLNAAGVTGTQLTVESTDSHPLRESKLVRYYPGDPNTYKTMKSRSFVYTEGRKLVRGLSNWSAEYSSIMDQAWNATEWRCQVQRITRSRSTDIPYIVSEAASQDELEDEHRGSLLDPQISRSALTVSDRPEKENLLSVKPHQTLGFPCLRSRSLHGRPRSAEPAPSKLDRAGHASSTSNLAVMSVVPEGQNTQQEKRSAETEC

Molecular target: LRFN2 expressed from the PGK-LRFN2 plasmid (UniProt Q80TG9)
Assay: co-IP

In the case of “TRPM1 expressed from the CMV-TRPM1 plasmid (from UniProt Q2TV84 1-1622)”, the binding is reported as “binds”.
